{"source": "patent US20060035365A1", "about": "“Method for identifying cellular growth inhibitors” (priority 2002, published 2006)", "system": "S. aureus containing S1-1941, a plasmid expressing a xylose-inducible fabF anti-sense RNA", "experiment": "Agar assay for fabF-acting substances: revertant colonies in the zone of inhibition", "type": "cell-based, Staphylococcus aureus", "conditions": "10 μL sample per well; thiotetramycin 1 mg/mL in DMSO, cerulenin 20 μg/mL in DMSO, kanamycin 100 μg/mL in water; xylose 23.6 mM; overnight 37° C.; visual inspection", "description": "S. aureus containing S1-1941, a plasmid expressing a xylose-inducible fabF anti-sense RNA (described in WO 00/44906 and in Forsyth et al., Mole. Microbiol. 2002, 43: 1387-1400), are inoculated into an LB broth culture medium supplemented with […] of chloramphenicol, and grown overnight at 37° C. with shaking (225 rpm). The culture is then diluted in the LB medium to a final optical density (λ=600 nm) of 0.3. Diluted cells (750 μL) are then added to a molten LB-agar medium (30 mL) supplemented with xylose (23.6 mM) and glucose (0.19 g/100 mL) and equilibrated at 48° C. The molten mixture is briefly mixed and is then poured onto sterile disposable polystyrene 86×128 mm dishes (NUNC Cat. No. 242811), after which a TSP (=transferable solid phase screening system) casting tray (NUNC Cat. No. 445497) is placed on top to cast wells. The dishes are allowed to cool down to room temperature for about 15 minutes and are then stored for no more than 2 days at 4° C. until ready for sample dispensing. Samples (10 μL) of one or more test substances (500 μM) and samples of controls, each dissolved in 100% DMSO, are subsequently dispensed into wells and the plates incubated overnight at 37° C. The incubated plates are then inspected visually for the appearance of revertant colonies to determine whether the test substance(s) act at the fabF protein. […]", "note": "Entries after “also recorded” stand apart in the source; their conditions may differ. At least one compound was matched to its structure with a doubt left.", "data": [{"smiles": "NC[C@H]1O[C@H](O[C@H]2[C@H](O)[C@@H](O[C@H]3O[C@H](CO)[C@@H](O)[C@H](N)[C@H]3O)[C@H](N)C[C@@H]2N)[C@H](O)[C@@H](O)[C@@H]1O", "note": "[kanamycin]", "values": [{"measurement": "appearance of revertant colonies / zone of growth inhibition on assay plate", "result": "no visually observable bacterial growth; also recorded: clear zone of no growth and no appearance of revertant colonies"}]}]}
